Test results: article PMC10711433, “The forkhead DNA-binding domain binds specific G2-rich RNA sequences”
Construct, isoform or probe ends are uncertain for at least one entry. A weaker result is weaker than the reference pair of the same experiment. For some assays here: Where a protein sequence is shown, tags need not be part of it. For some assays here: Where cells or extracts were used, other partners may take part. For some assays here: At least one verdict rests on a figure or table, not on a statement of the authors.

Chains of the proteins cited; added tags and fusions are not shown. Lines headed by an entry give the natural chain unless they say otherwise; changes in a name come on top.
UniProt O43524: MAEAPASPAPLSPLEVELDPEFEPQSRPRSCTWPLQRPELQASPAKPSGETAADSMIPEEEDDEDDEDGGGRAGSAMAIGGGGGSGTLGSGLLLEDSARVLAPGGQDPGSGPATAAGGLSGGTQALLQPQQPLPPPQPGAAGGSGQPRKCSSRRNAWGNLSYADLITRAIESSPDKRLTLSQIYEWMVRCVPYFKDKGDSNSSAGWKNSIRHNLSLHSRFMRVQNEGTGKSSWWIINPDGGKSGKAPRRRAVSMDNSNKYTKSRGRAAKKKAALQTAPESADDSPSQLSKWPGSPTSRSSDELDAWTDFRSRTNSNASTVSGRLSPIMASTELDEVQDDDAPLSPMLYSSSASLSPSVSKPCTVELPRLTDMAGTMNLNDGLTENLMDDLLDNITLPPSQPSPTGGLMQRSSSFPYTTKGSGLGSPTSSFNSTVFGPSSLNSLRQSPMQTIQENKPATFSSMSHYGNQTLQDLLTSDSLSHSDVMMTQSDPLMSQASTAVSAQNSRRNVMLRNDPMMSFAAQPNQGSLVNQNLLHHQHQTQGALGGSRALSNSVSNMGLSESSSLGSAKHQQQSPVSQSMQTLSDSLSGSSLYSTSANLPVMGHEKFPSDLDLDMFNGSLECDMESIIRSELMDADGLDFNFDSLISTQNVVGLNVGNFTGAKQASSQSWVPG

How the values were obtained:
Test in all cases: pull-down competition + HTS
FOXL2 FHD alone = target: T1, FOXL2 FHD alone (UniProt P58012); conditions: 10 mM HEPES (pH 7.5), 140 mM KCl, 25 mM NaCl, 1 mM MgCl2, 0.1 mM CaCl2, 0.001% IGEPAL, 100 nM yeast tRNA, 50 nM total aptamers, 37 C, 30 min; protein in a lysate after overexpression; protein details: V5
T1 sequence (looked up, limits assumed): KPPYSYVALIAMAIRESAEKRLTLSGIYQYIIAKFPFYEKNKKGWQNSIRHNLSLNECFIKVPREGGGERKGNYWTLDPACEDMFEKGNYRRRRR

FOXL2 wt (V5, HeLa) = target: T2, FOXL2 wt (V5, HeLa) (UniProt P58012); conditions: 10 mM HEPES (pH 7.5), 140 mM KCl, 25 mM NaCl, 1 mM MgCl2, 0.1 mM CaCl2, 0.001% IGEPAL, 100 nM yeast tRNA, 50 nM total aptamers, 37 C, 30 min; protein in a lysate after overexpression; residues 1-376; protein details: V5
T2 sequence (looked up): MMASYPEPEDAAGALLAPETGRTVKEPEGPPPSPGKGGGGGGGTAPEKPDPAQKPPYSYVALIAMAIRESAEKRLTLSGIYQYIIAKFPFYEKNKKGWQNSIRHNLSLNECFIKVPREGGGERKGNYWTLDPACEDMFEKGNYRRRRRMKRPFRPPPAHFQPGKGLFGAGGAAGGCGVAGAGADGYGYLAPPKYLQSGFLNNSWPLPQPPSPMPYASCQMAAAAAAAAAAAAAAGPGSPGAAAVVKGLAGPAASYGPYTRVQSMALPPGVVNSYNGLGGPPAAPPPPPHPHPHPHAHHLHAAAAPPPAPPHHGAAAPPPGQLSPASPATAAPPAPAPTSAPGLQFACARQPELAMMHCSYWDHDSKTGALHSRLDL

FOXA1 = target: T3, FOXA1 (UniProt P55317); conditions: 10 mM HEPES (pH 7.5), 140 mM KCl, 25 mM NaCl, 1 mM MgCl2, 0.1 mM CaCl2, 0.001% IGEPAL, 100 nM yeast tRNA, 50 nM total aptamers, 37 C, 30 min; protein in a lysate after overexpression; protein details: V5
T3 sequence (looked up, limits assumed): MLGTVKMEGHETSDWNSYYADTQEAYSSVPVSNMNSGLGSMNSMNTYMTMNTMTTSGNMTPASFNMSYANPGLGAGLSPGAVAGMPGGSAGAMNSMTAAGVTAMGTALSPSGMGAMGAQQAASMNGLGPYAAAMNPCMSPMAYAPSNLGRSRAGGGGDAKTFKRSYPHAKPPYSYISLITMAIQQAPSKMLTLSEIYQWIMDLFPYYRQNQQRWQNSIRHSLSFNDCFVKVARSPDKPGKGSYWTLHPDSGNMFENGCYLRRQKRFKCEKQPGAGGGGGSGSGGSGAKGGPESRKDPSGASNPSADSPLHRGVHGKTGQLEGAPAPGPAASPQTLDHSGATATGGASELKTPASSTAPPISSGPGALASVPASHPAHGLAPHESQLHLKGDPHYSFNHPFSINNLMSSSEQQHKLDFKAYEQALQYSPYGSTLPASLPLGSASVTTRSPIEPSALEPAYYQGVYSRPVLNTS

FOXL2 without C-ter = target: T4, FOXL2 without C-ter (UniProt P58012); conditions: 10 mM HEPES (pH 7.5), 140 mM KCl, 25 mM NaCl, 1 mM MgCl2, 0.1 mM CaCl2, 0.001% IGEPAL, 100 nM yeast tRNA, 50 nM total aptamers, 37 C, 30 min; protein in a lysate after overexpression; protein details: V5
T4 sequence (looked up, limits assumed): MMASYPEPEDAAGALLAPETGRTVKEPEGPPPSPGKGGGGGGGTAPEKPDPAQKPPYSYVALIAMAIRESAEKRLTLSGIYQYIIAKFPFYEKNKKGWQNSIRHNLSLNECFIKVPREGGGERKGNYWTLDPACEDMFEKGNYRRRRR

FOXO3A = FOXO3A (UniProt O43524); conditions: 10 mM HEPES (pH 7.5), 140 mM KCl, 25 mM NaCl, 1 mM MgCl2, 0.1 mM CaCl2, 0.001% IGEPAL, 100 nM yeast tRNA, 50 nM total aptamers, 37 C, 30 min; protein in a lysate after overexpression; protein details: V5
FOXL2 without N-ter = target: T5, FOXL2 without N-ter (UniProt P58012); conditions: 10 mM HEPES (pH 7.5), 140 mM KCl, 25 mM NaCl, 1 mM MgCl2, 0.1 mM CaCl2, 0.001% IGEPAL, 100 nM yeast tRNA, 50 nM total aptamers, 37 C, 30 min; protein in a lysate after overexpression; protein details: V5
T5 sequence (looked up, limits assumed): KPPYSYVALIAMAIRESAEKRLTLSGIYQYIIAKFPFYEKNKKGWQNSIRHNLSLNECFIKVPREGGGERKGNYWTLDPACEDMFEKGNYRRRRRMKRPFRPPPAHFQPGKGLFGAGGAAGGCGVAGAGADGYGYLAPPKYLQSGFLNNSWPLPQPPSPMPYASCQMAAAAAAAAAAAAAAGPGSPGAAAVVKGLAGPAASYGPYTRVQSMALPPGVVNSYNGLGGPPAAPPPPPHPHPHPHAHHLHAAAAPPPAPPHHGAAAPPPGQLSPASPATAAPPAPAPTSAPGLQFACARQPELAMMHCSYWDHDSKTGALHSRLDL

FOXL2 wt (recombinant) = target: T6, FOXL2 wt (recombinant) (UniProt P58012); conditions: 140 mM LiCl, no K+/Na+; 10 mM HEPES (pH 7.5), 140 mM KCl, 25 mM NaCl, 1 mM MgCl2, 0.1 mM CaCl2, 0.001% IGEPAL, 100 nM yeast tRNA, 50 nM total aptamers, 37 C, 30 min; recombinant protein; residues 1-376; protein details: His-SUMO tag cleaved
T6 sequence (looked up): T2 sequence (looked up)

Sequence: AUCUGCGACUGGCUGGAGGUGGACGGAUGGCUGGAGGCGAAAUUGGCUUA [RF004 RNA]
- binding result (FOXL2 FHD alone): binds
- binding result (FOXL2 wt (V5, HeLa)): binds
- binding result (FOXA1): binds
- binding result (FOXL2 without C-ter): binds
- binding result (FOXO3A): binds
- binding result (FOXL2 without N-ter): binds

Sequence: CGUCAUUUGGUGGAUGGCGGAAGGAGGCGGAGGACGGGAAAUUCUGGAAA [RF001 RNA]
- binding result (FOXL2 FHD alone): binds
- binding result (FOXL2 wt (V5, HeLa)): binds
- binding result (FOXA1): binds
- binding result (FOXL2 without C-ter): binds
- binding result (FOXL2 wt (recombinant)): binds more weakly
- binding result (FOXO3A): binds
- binding result (FOXL2 without N-ter): binds

Sequence: GAGGUAUUAAGAGGCGGAGGCGGAAGGAUGGCGGAGGACCGACAGAGAAG [RF000 RNA]
- binding result (FOXL2 FHD alone): binds
- binding result (FOXL2 wt (V5, HeLa)): binds
- binding result (FOXA1): binds
- binding result (FOXL2 without C-ter): binds
- binding result (FOXL2 wt (recombinant)): binds more weakly
- binding result (FOXO3A): binds
- binding result (FOXL2 without N-ter): binds

Sequence: GGGACACUCGCUGUUUUCGAAAUUACCCUUUAUGCGCGGGUAUUGAACCA [scr50 RNA]
- binding result (FOXL2 FHD alone): binds more weakly
- binding result (FOXL2 wt (V5, HeLa)): binds more weakly
- binding result (FOXA1): binds more weakly
- binding result (FOXL2 without C-ter): binds more weakly
- binding result (FOXO3A): binds more weakly
- binding result (FOXL2 without N-ter): binds more weakly

Sequence: UCGGACUUUGGUGGUUGGAGGACGGAUGGACGGAGGUUUAUUAGGCUCGC [RF002 RNA]
- binding result (FOXL2 FHD alone): binds
- binding result (FOXL2 wt (V5, HeLa)): binds
- binding result (FOXA1): binds
- binding result (FOXL2 without C-ter): binds
- binding result (FOXO3A): binds
- binding result (FOXL2 without N-ter): binds
